{"source": "paper PMC5741264", "binders": {"B1": {"name": "MED16 (protein, UniProt F4JGZ1 1-1278)", "chain": "MNQQNPEEEVSLVNNSGGGGIIEAPAIVEEKEEEGLQQKQEETIESTDPILVVVEEKLLEKSVDGEKEDDNSSSSNMEIDPVSPATVFCVKLKQPNSNLLHKMSVPELCRNFSAVAWCGKLNAIACASETCARIPSSKANTPFWIPIHILIPERPTECAVFNVVADSPRDSVQFIEWSPTSCPRALLIANFHGRITIWTQPTQGSANLVHDATSWQCEHEWRQDIAVVTKWLTGASPYRWLSSKPSSGTNAKSTFEEKFLSQSSESSARWPNFLCVCSVFSSGSVQIHWSQWPSNQGSTAPKWFSTKKGLLGAGPSGIMAADAIITDSGAMHVAGVPIVNPSTIVVWEVTPGPGNGLQATPKISTGSRVPPSLSSSSWTGFAPLAAYLFSWQEYLISEIKQGKKPSDQDSSDAISLSCSPVSNFSAYVSPEAAAQSAATTTWGSGVTAVAFDPTRGGSVIAVVIVEGQYMSPYDPDEGPSITGWRVQRWESSVQPVVLHQIFGNPTSNFGGQVPTQTVWVSRVDMSIPPTKDFKNHQVAAAGPSVDAPKEPDSGDEKANKVVFDPFDLPSDIRTLARIVYSAHGGEIAIAFLRGGVHIFSGPTFSPVENYQINVGSAIAAPAFSPTSCCSASVWHDAAKDCAMLKIIRVLPPALPRNQSKVDQSTWERAIAERFWWSLLVGVDWWDAVGCTQSAAEDGIVSLNSVIAVMDADFHSLPSTQHRQQYGPNLDRIKCRLLEGTNAQEVRAMVLDMQARLLLDMLGKGIESALVNPSALVFEPWRVDGETITGINPEAMAVDPALVSSIQAYVDAVLDLASHFITRLRRYASFCRTLASHAASAGTGSNRNNVTSPTQNASSPATPQVFPDKSLYLAVGQPTTTTTTTATTNSSGSSHVQAWMQGAIAKISSSNDGSNSTASPISGSPTFMPISINTGTFPGTPAVRLIGDCHFLHRLCQLLLFCFLQRSSRFPQRNADVSSQKLQTGATSKLEEVNSAKPTPALNRIEDAQGFRGAQLGTGVKGIDENSARTTKMGSGNAGQGYTYEEVRVLFHILMDLCKRTSGLAHPLPGSQVGSGNIQVRLHYIDGNYTVLPEVVEAALGPHMQNMPRPRGADAAGLLLRELELHPPSEEWHRRNLFGGPGSEPEDMILTDDVSKLSNSLDLPDTNFSGICDGYNRVHSLWPRKRRMSERDAAFGSNTSVGLGAYLGIMGSRRDVVTATWKTGLEGVWYKCIRCLRQTSAFASPGATKQPNPNERETWWTSRWVYCCPMCGGTWVRVV"}, "B2": {"name": "MED18, endogenous (protein, UniProt Q9SJZ6 1-219)", "chain": "MSMECVVQGIIETQHVEALEILLQGLCGVQRERLRVHELCLRSGPNLGVVSSEVRLLCDLDQPEPTWTVKHVGGAMRGAGADQISVLVRNMIESKVSKNALRMFYALGYKLDHELLKVGFAFHFQRTAHISVSVSSVNKMPKVHAIDEAVPVTPGMQIVDVTAPATSENYSEVAAAVSSFCEFLAPLVHLSKPSISTGVVPTAAAAAASLMSDGGGTTL"}, "B3": {"name": "NUP43 (protein, UniProt Q24JJ9 1-361)", "chain": "MEMMQDSFQVHRIPQSKYVDGVRWLPQASALNRFFATASYDADCDSSSIEIQSLDPNPRGNHNTNPLIESLSSWTSPSRVSSLEVAGNGGGGGSFKPMVSAATSSGSLHVLMIDLVEGAAIEEFYAAEGERFHVGRVEGVDWREGGECVTVGEDGRVNVVKIVNGEGLRYRKVFDGNGLVAYRAVKWASPTEFVTGGYGFGLQLWDQRKSGEAVSQLKGNWFQGKTSAIVHSIDIHPSRKHTCIAGGSSGTVFAWDLRWPQQPIVLSGVGASENINNPLSESEVWEVQYDSYTKSNVSSSRILPVMTCSEDGILGIIEQGEEPIELLAEPCAINSFDIDRQNPQDVICSLEWESIAVFSRP"}, "B4": {"name": "NUP96 (protein, UniProt Q8LLD0 1-1046)", "chain": "MTSLSIQPFPEISRMARDLDSRKKRRISLDGIAALCEHSKEIIDSLPMLNSPDYFLKPCINELVEREIESPDYCSRVPDFTIGRIGYGYIRFLGNTDVRRLDLDHIVKFHRHEVIVYDDESSKPVVGEGLNKAAEVTLVVNIPDLTWGKQQVNHIAYKLKQSTERQGATFISFDPDNGLWKFFVPHFSRFGLSDDEAEDIAMDDAPGLGDPVGLDGKKVADIDEEDQMETSELELSHSLPAHLGLDPEKMKEMRMLMFPNEDEDESEDFREQTSHLMTSLTKRNVRPSQKIAQRNSHQDPPPVVRKTPLALLEYNPGNDKSSPGSILMVQQNKNLAVRKSKTGGFELDISHVTPLTDNYSRNVVDAALFMGRSFRAGWGPNGVLFHTGKPICSSSSQMVLSSVINKEKIAIDKVVWDRKGKVQKELIDSAFEAPLSLHKELNHVEEEVRFGSFSLKLQNVVTDRVVLSDICRSYIGIIEKQLEVAGLSTSAKLFLMHQVMVWELIKVLFSERQSTERLMYAASDNEEDVMQDVKEDSAKIDTEALPLIRRAEFSCWLQESVSHRVQEDVSDLNGSSYLEHLFFLLTGRELDSAVELAISKGDVRLACLLSQAGGSTVNRNDILQQLHLWRRNGLDFNFIEKERIKLYELLAGNIHDALQDFTIDWKRFLGLLMWHHLPPDSSLPIIFRSYQLLLNQAKAPWPVPIYIDEGPADGFVSDNKHSDILYYLMLLHSKEEEEFGFLQTMFSAFSSTDDPLDYHMIWHHRGILEAVGAFTSDDLHTLDMGFVAQLLSQGLCHWAIYVVLHIPFREDHPYLHVTVIREILFQYCETWSSMESQRQFIKDLGIPSEWMHEALAVYYNYHGDFVKALDQFIECANWQRAHSIFMTSVAHSLFLSANHSEIWRIATSMDDRKSEIENWDLGAGIYMSFYLLKSSLQEDADTMVELEPLDSTNESCRNFVGRLNESLAVWGDRLPVEARVAYSKMAEEICDLLLSDLSKNPSRETQLTCFETAFDAPLPEDVRSTHLQDAVSLFSLYLSETGQISA"}, "B5": {"name": "NUP107 (protein, UniProt Q8L748 1-1101)", "chain": "MDMDMDTSPSYFDPEALSVRDQFRRYRKRHSTSPHEEMLSSNVSENRLLYDGHNIHSPTNTALLLENIKEEVDNFHTDHYEGTPTNPISASRRESVGILNDDDEALFRRVESQSLKACKIENDELAESGDTTFALFASLFDSALQGLMSIPNLMLRLEESCRNVSQSIRYGSDIRHRAVEDKLMRQKAQLLLGEAASWSLLWNLYGKGTDEVPENLILIPSTSHLEACQFVLNDHTAQLCLRIVMWLEELASKSLDLERKVQGSHVGTYLPNAGVWHHTQRYLKKNGSNADTLHHLDFDAPTREHARLLPDDYKQDESVLEDVWTLIRAGRIEEACDLCRSAGQSWRAATLCPFSGMDMFPSIEALVKNGENRTLQAIEQESGFGNQLRLWKWASYCASEKIAEQDGGKHEVAVFATQCSNLNRMLPICTDWESACWAMAKSWLDVQVDLELAQSKPGLTERFKSCIDESPEATQNGCQASFGPEDWPLHVLNQQPRDLPALLQKLHSGEMVHEAVVRGCKEQHRQIQMNLMLGDISHLLDIIWSWIAPLEDDQSNFRPHGDPHMIKFGAHMVLVLRLLFTDEINDSFKEKLNNVGDLILHMYAMFLFSKQHEELVGIYASQLARHRCIELFVHMMELRMHSSVHVKYKIFLSAMEYLSFSPVDDLHGNFEEIVDRVLSRSREIKLAKYDPSIDVAEQHRQQSLQKAIAIQWLCFTPPSTIKDVKDVTSKLLLRSLMHSNILFREFALIAMWRVPATPVGAHTLLSYLAEPLKQLSENPDTLEDYVSENLQEFQDWNEYYSCDAKYRNWLKFQLENAEVTELSEEENQKAVVAAKETLDSSLSLLLRQDNPWMTFLEDHVFESEEYLFLELHATAMLCLPSGECLRPDATVCAALMSALYSSVSEEVVLDRQLMVNVSISSRDSYCIEVVLRCLAIKGDGLGPHNANDGGILSAVAAAGFKGSDIYGTYFSFTYDLPPFSIEIWGCELTRFQAGVTMDISRLDAWYSSKEGSLETPATYIVRGLCRRCCLPELVLRSMQVSVSLMESGNPPEDHDELIELVASDETGFLSLFSRQQLQEFMLFEREYRMSQLELQEELSSP"}, "B6": {"name": "Sec13A, endogenous (protein, UniProt Q9SRI1 1-302)", "chain": "MPPQKIETGHSDTIHDVVMDYYGKRVATASSDCTIKITGVSNSGGSQHLATLTGHRGPVWQVAWAHPKFGSLLASCSYDGQIILWKEGNQNQWTQAHVFTDHKVSVNSIAWAPHELGLSLACGASDGNISVFSARADGGWDTTKIDQAHPVGVTSVSWAPATEPGALVSSGMIDPVYKLASGGCDSTVKVWKFSNGSWKMDCFPALNKHTDWVRDVAWAPNLGLPKSTIASGSEDGKVIIWTIGKEGEQWEGTVLKDFKTPVWRVSWSLTGNLLAVSDGNNNVTVWKESVDGEWEQVTVVEP"}}, "note": "No constants are given. Whether binding was seen depends on the method and setting. In cells and extracts the contact can be indirect. Here binding means that the protein was enriched with, or labelled near, the bait; the list need not be complete. Where a sequence is shown, tags or fusion partners need not be part of it."}
{"target": "T1, NUP85-MYC (NUCLEOPORIN 85, expressed from NUP85pro:NUP85-MYC) (Arabidopsis thaliana) (UniProt Q8RXH2)", "T1 sequence": "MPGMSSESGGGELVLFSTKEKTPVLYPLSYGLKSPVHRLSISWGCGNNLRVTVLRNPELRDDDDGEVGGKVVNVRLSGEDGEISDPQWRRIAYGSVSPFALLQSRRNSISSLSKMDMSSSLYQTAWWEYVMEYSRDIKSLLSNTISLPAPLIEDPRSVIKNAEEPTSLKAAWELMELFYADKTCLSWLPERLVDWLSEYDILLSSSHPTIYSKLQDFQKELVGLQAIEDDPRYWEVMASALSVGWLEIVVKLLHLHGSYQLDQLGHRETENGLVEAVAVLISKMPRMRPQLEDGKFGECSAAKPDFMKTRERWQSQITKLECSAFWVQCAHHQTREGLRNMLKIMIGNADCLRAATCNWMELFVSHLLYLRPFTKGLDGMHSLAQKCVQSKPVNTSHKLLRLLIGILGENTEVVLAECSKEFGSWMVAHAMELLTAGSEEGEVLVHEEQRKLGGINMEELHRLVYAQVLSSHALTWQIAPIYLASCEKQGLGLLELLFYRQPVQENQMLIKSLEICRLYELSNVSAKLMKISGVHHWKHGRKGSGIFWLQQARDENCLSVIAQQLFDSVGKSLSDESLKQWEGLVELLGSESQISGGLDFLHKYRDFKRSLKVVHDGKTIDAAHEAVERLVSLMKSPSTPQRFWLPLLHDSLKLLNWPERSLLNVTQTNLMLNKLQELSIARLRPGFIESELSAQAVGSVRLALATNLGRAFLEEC", "assay": "affinity purification with mass spectrometry; anti-MYC agarose beads on total protein extract of 12-day-old NUP85pro:NUP85-MYC transgenic seedlings, WT seedlings as negative control; 4 h at 4°C; two independent IP-MS experiments"}
{"binder": "B1", "binding": "binds"}
{"binder": "B2", "binding": "binds"}
{"binder": "B3", "binding": "binds"}
{"binder": "B4", "binding": "binds"}
{"binder": "B5", "binding": "binds"}
{"binder": "B6", "binding": "binds"}
